In patent US20240398768A1, “METHODS OF TREATING SOLID TUMOR USING HETEROAROMATIC MACROCYCLIC ETHER COMPOUNDS” (Nuvalent, Inc., priority 2021, published 2024):
“Also recorded” adds a separate entry of the source. At least one structure is not confirmed: it was looked up by name or label, or the drawing left a doubt.

System: MAPK and PI3K/AKT pathways
Experiment: Single-dose pharmacodynamics in PDX tumors harboring SDC4-ROS1 (western blot)
Format: in vivo, mice
Conditions: PDX tumors harboring SDC4-ROS1, single dose PO

SMILES: CCn1ncc2c1-c1cnc(N)c(c1)O[C@H](C)c1cc(F)ccc1-c1nn(C)nc1C2 [Compound 1, (19R)-3-ethyl-16-fluoro-10,19-dimethyl-20-oxa-3,4,9,10,11,23-hexaazapentacyclo [19.3.1.0^2,^6.0^8,^12.0^13,^18]pentacosa-1 (24),2 (6),4,8,11,13,15,17,21 (25),22-decaen-22-amine]
- MAPK and PI3K/AKT signaling (pERK, pAKT levels): inhibits signaling; also recorded: reductions in levels
- apoptosis (cleaved PARP): induces apoptosis
